One sequence from publication PMC10625600 can be followed below.

Amino acid sequences for entries named in this document (tags omitted). Residues count along the entry.
UniProt Q15717, 11-186: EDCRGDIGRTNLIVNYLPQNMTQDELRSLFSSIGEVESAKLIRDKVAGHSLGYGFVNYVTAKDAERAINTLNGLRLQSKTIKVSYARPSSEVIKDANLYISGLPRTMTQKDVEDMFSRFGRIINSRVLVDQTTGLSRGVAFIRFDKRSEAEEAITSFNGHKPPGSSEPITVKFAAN

In this data set the target is HuR RRM1+2 (UniProt Q15717). Put plainly: SPR. The conditions noted are these: 50 nM RNA, no VHH, legend says unlabelled RNA, Methods names the Msi1-FITC probe; SPR: Biacore 8K, streptavidin chip; recombinant protein; residues 11-186; protein details: Avi-tag (biotinylated), TEV-cleavable His-tag. A general note: In SPR one partner is held on a chip, and binding of the other changes the refractive index at the surface.

The exact form of at least one protein or probe is not confirmed. At least one verdict rests on a figure or table, not on a statement of the authors.

In the case of GCUUUUAUUUAUUUUG [unlabelled Msi1 RNA], the binding result is reported as “binds”.
